The text below walks through data of publication PMC6797804, “Histone H3K23-specific acetylation by MORF is coupled to H3K14 acylation” (Nature Communications, 2019).

By UniProt entry, the sequences of proteins in these tests, tags left out.
UniProt Q92794: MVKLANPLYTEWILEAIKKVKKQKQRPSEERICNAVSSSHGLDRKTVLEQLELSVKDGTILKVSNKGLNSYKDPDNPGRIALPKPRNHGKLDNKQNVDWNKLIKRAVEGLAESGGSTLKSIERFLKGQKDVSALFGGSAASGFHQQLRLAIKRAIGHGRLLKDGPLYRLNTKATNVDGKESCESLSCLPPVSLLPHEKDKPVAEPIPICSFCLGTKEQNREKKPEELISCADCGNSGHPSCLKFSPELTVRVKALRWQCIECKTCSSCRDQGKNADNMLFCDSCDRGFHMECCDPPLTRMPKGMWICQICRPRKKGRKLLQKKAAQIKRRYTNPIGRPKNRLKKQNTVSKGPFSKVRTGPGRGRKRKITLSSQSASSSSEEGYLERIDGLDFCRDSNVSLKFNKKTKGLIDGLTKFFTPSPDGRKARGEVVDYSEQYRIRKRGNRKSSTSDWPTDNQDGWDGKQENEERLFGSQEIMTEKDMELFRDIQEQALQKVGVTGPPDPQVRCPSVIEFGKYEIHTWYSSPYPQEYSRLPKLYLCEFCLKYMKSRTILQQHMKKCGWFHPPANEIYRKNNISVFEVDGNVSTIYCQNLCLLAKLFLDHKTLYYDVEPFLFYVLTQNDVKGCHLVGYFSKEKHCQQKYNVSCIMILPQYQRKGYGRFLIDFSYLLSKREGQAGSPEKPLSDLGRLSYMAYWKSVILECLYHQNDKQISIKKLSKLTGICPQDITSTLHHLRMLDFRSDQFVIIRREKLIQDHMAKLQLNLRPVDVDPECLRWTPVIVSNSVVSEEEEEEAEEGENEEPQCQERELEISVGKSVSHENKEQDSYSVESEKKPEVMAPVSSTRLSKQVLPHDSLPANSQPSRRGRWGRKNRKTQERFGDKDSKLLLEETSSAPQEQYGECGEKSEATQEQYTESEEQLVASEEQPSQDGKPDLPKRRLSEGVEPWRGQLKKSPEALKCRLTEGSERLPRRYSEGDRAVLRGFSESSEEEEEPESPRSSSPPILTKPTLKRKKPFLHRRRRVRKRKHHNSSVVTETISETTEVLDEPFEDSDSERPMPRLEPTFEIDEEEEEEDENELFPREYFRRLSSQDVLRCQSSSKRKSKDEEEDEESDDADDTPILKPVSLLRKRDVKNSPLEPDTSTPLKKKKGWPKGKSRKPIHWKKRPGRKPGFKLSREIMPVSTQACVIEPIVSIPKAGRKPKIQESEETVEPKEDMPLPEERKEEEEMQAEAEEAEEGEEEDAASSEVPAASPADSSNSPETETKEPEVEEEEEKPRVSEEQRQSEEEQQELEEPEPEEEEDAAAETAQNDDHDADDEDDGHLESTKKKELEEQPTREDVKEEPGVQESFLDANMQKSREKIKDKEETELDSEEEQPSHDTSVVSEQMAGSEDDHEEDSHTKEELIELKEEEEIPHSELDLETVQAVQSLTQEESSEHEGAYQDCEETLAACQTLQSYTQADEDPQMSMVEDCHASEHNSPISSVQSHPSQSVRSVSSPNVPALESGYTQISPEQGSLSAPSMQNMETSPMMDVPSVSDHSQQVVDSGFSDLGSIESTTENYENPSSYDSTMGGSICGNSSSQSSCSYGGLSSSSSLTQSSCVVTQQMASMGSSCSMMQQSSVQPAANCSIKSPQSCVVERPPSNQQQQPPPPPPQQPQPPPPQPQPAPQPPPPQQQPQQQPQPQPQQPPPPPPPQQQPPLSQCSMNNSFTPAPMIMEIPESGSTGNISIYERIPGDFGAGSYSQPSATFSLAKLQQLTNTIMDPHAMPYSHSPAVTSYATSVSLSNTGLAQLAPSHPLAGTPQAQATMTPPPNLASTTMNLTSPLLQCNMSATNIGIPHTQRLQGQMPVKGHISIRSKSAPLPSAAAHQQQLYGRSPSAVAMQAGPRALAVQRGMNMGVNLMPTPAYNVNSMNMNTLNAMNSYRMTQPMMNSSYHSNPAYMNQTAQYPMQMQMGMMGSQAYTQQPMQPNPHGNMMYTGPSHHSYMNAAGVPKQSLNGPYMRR
UniProt Q8WYB5: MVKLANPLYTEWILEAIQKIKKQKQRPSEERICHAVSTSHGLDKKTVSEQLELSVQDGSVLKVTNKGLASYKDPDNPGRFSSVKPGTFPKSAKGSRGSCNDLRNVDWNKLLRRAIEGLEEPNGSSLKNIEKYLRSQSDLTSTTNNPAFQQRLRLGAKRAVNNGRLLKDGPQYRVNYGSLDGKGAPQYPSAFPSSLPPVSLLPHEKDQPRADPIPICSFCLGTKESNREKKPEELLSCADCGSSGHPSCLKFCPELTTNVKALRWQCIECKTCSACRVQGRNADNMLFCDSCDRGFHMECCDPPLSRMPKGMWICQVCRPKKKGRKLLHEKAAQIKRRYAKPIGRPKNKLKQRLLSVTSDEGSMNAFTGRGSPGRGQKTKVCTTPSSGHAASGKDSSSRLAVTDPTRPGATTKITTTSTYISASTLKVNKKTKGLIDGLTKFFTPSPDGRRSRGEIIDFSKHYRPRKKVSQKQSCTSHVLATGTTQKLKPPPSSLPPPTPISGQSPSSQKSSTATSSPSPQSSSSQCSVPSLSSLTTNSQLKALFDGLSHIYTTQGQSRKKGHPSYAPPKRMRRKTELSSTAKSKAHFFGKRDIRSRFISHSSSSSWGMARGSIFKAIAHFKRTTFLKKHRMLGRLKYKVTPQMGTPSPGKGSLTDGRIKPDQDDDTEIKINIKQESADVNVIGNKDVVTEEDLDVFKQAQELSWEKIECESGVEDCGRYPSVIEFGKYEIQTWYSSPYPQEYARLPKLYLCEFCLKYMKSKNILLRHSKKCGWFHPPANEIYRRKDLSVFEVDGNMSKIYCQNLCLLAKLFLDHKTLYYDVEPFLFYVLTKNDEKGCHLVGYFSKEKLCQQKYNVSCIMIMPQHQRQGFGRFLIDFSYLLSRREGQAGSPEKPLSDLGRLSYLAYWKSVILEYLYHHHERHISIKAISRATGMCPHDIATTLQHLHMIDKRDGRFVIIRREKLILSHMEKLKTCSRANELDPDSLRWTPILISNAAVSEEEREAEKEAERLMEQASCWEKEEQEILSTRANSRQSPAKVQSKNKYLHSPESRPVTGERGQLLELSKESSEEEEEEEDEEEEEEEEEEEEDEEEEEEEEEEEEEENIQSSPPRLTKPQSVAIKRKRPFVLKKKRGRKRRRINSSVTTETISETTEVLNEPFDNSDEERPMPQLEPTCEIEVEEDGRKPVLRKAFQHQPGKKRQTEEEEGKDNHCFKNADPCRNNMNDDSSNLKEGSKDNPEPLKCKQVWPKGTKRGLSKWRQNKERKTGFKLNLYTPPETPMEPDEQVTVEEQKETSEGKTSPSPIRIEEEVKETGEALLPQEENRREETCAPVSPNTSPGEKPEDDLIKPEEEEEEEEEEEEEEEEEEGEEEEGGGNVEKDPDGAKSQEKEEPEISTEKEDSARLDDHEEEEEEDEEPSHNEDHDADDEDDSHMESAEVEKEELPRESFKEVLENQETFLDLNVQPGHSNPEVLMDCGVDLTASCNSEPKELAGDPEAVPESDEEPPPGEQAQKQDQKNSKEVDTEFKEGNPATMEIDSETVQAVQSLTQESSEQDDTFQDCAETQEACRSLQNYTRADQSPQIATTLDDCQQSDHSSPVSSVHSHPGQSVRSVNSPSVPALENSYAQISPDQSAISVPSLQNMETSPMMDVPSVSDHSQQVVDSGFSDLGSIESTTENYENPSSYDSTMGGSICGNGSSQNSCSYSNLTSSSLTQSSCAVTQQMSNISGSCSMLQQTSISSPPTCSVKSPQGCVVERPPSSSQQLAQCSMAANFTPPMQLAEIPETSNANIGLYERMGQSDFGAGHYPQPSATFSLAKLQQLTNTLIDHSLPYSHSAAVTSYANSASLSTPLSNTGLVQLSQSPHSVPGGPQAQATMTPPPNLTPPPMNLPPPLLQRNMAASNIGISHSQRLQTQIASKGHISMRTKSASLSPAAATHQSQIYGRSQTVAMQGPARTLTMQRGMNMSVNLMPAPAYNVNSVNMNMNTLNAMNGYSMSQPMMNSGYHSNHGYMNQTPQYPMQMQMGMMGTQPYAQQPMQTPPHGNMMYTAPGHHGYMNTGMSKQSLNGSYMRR
UniProt P55201: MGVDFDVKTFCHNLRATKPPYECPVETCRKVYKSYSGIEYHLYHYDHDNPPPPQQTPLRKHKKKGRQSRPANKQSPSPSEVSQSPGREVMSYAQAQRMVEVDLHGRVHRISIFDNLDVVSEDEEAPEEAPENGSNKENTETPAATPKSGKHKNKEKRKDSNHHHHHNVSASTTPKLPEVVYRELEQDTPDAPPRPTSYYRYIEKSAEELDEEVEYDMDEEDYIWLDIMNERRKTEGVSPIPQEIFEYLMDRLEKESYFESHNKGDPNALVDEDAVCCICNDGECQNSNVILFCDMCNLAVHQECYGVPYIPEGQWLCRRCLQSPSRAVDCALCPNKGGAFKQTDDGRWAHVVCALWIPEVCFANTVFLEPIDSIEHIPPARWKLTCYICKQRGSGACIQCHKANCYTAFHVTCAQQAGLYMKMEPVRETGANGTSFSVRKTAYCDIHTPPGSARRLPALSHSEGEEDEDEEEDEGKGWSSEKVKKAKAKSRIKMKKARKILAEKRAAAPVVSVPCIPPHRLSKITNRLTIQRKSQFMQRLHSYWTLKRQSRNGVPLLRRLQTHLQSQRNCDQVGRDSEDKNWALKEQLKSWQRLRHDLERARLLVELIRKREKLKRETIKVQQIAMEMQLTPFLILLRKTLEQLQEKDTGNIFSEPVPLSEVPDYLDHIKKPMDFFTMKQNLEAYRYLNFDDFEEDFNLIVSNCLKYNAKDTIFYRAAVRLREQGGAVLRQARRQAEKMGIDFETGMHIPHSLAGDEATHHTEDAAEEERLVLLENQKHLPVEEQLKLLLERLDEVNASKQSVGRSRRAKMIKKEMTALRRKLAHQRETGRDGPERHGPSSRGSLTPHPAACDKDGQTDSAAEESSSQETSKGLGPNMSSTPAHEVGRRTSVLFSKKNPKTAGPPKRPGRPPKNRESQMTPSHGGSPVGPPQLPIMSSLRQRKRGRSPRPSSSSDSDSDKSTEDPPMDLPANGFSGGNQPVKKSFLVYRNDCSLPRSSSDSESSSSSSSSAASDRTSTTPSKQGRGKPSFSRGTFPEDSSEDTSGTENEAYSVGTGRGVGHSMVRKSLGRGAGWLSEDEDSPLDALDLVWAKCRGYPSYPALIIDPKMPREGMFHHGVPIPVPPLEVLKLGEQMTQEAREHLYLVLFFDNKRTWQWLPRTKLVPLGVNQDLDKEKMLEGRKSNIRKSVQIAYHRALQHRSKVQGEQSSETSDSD

No constants are given. Whether binding was seen depends on the method and setting. In cells and extracts the contact can be indirect. These calls come from enrichment with a bait or labelling near it, and not all partners need be listed.

The target in experiment [1] is 3xFLAG-2xStrep-tagged MOZ, expressed from the AAVS1 locus in K562 cells (human) (UniProt Q92794). Description: affinity purification with mass spectrometry; tandem affinity purification (anti-FLAG agarose, 3xFLAG peptide elution, then Strep-Tactin, biotin elution) of 3xFLAG-2xStrep MORF or MOZ from K562 nuclear extracts; silver staining and Orbitrap mass spectrometry.

Experiment [2] addresses 3xFLAG-2xStrep-tagged MORF (full length), expressed from the AAVS1 locus in K562 cells (human) (UniProt Q8WYB5). The description is as above.

Consider “BRPF1 (endogenous, K562) (from UniProt P55201 1-1214)”, for which the binding entry in experiment [1] and in experiment [2] was “binds” in each case.
